Measurements reported in patent US20240182911A1.
No constants are given. Whether binding was seen depends on the method and setting. Some results given as binding are weak or reduced against the parent protein; the word gives no strength.

How the values were obtained:
[1] = target: angiotensin II type 1 receptor (AT1R) with FLAG peptide fused to its N-terminus (human) (UniProt P30556); experiment: on-yeast affinity assay
[2] = target: angiotensin II type 1 receptor (AT1R) with FLAG peptide fused to its N-terminus (human) (UniProt P30556); experiment: radioligand competition binding assay

B1: AT110 Y113H (VHH)
VHH: QVQLQESGGGLVQAGGSLRLSCAASGNIFDADIMGWYRQAPGKERELVASITDGGSTNYADSVKGRFTISRDNAKNTVYLQMNSLKPEDTAVYYCAAIAYPDIPTYFDYDSDHFYWGQGTQVTVSS
binding [1]: binds | binding [2]: binds
